This note sets out measurements from PubChem BioAssay AID248 (DTP/NCI, 2004).

The experiment relates to L1210 leukemia ip in BDF1 mice, survival T/C. In words: NCI In Vivo Anticancer Drug Screen. Data for tumor model L1210 Leukemia (intraperitoneal) in B6D2F1 (BDF1) mice. The settings on record: T/C endpoint: mean survival time, higher T/C = longer survival.
The mark [1] stands for this setting: dose: 400.0 mg/kg/injection, schedule: Q01DX009 (ip), vehicle: saline with Tween-80.
The mark [2] stands for this setting: dose: 400.0 mg/kg/injection, schedule: Q04DX003 (ip), vehicle: Klucel (hydroxypropylcellulose) (HPC).
Where [3] appears, read: dose: 200.0 mg/kg/injection, schedule: Q01DX001 (ip), vehicle: saline.
Setting [4] is: dose: 400.0 mg/kg/injection, schedule: Q01DX001 (ip), vehicle: saline.
The mark [5] stands for this setting: dose: 80.0 mg/kg/injection, schedule: Q01DX001 (ip), vehicle: saline.
[6] abbreviates: dose: 200.0 mg/kg/injection, schedule: Q01DX001 (ip), vehicle: carboxymethylcellulose (CMC).
[7] abbreviates: dose: 400.0 mg/kg/injection, schedule: Q01DX001 (ip), vehicle: carboxymethylcellulose (CMC).
[8] abbreviates: dose: 400.0 mg/kg/injection, schedule: Q04DX002 (ip), vehicle: Klucel (hydroxypropylcellulose) (HPC).

The list shows only some results of the screen, not a fair sample: it is rich in T/C values a quarter to a half above the control, in often repeated tests (any T/C) and in doses without a T/C. Other doses and runs of a compound stand elsewhere. T/C is the treated group as % of the vehicle group. Some doses have a count of surviving animals in place of a T/C: the source holds a T/C of zero for them, seemingly a mark for toxic or unscored doses. Some doses without a T/C left all or most animals alive at the check, yet need not have been tolerated: survival well below the control is almost never listed, so the zero probably covers shortened survival too. Survivors were counted at the toxicity check, usually on the fifth day, unless a day is given; later deaths do not show. Schedule codes are those of the source, taken here to give the interval after Q, in days (D) or hours (H), and the number of doses after X. Some schedule codes hold Z or #, which are not explained here. Some structures stand for samples that the source files as different forms (salt, stereo form or complex); doses refer to the form tested. Marks such as (2×) say how often a value occurs here. Some entries hold several experiments; the results are listed from low to high. Where survival is the endpoint, the PubChem record calls one and a half times the control and up active, and a quarter to a half above the control has no call in these data; cut-offs in other NCI protocols can differ.

Regarding `CCN=C(c1ccc(NC(=O)c2ccc(C(=O)Nc3ccc(C(=NCC)N(CC)C(=O)Nc4ccc(OCC)cc4)cc3)cc2)cc1)N(CC)C(=O)Nc1ccc(OCC)cc1`, the T/C (dose: 15.0 mg/kg/injection, schedule: Q01DX015 (ip), vehicle: methylcellulose (MC)) was 132 % of control. Further, the survivor count (dose: 30.0 mg/kg/injection, schedule: Q01DX015 (ip), vehicle: methylcellulose (MC)) is reported as 0 of 6; the survivor count (dose: 62.0 mg/kg/injection, schedule: Q01DX015 (ip), vehicle: methylcellulose (MC)) is recorded as 0 of 6; the survivor count (dose: 125.0 mg/kg/injection, schedule: Q01DX015 (ip), vehicle: methylcellulose (MC)) was 0 of 6; the survivor count (dose: 250.0 mg/kg/injection, schedule: Q01DX015 (ip), vehicle: methylcellulose (MC)) is 0 of 6; the survivor count (dose: 500.0 mg/kg/injection, schedule: Q01DX015 (ip), vehicle: methylcellulose (MC)) is on record as 0 of 6.
Take `CC(=O)OCN1C(=O)N(COC(C)=O)C(c2ccccc2)(c2ccccc2)C1=O`: the survivor count under setting [1] is recorded as 0 of 3.
In the case of `O=C(NCCCN1CC1)C(=O)Nc1cccnc1`, the survivor count by setting is: (dose: 100.0 mg/kg/injection, schedule: Q04DX003 (ip), vehicle: Klucel (hydroxypropylcellulose) (HPC)) 2 of 6; (dose: 200.0 mg/kg/injection, schedule: Q04DX003 (ip), vehicle: Klucel (hydroxypropylcellulose) (HPC)) 0 of 6; under setting [2], 0 of 6.
Take `CCN(CC)c1ccc(Cc2cc(O)c3c(c2O)C(=O)c2ccccc2C3=O)cc1`: the survivor count (dose: 200.0 mg/kg/injection, schedule: Q01DX009 (ip), vehicle: Klucel (hydroxypropylcellulose) (HPC)) is given as 3 of 3.
`COc1ccc(Cl)cc1NC(=O)N/N=C(\C)CC(C)C`: under setting [1], the survivor count is recorded as 6 of 6.
Regarding `CN(C)C1CCc2c(ccc3ccccc23)C1=O` (stereo unspecified), the survivor count under setting [3] is given as 0 of 6 and the survivor count under setting [4] is reported as 0 of 6.
For `Cc1c(-c2ccc(Cl)cc2)nc2cc(Cl)ccc2c1C(=O)O`, the survivor count (dose: 400.0 mg/kg/injection, schedule: Q01DX009 (ip), vehicle: saline) is 1 of 3.
For the compound `O=CN(O)CC(=O)O.[Ni]`, the survivor count (dose: 25.0 mg/kg/injection, schedule: Q01DX009 (ip), vehicle: saline) is on record as 3 of 6.
Regarding `c1ccc(N2CCNCC2)cc1`, the survivor count reads like this: under setting [5], 1 of 6 and 2 of 6; (dose: 100.0 mg/kg/injection, schedule: Q01DX001 (ip), vehicle: saline) 0 of 4 (2×), 1 of 4, 2 of 4; (dose: 100.0 mg/kg/injection, schedule: Q04DX003 (ip), vehicle: saline) 0 of 6; under setting [3], 0 of 4 (5×); (dose: 200.0 mg/kg/injection, schedule: Q04DX003 (ip), vehicle: saline) 0 of 6; under setting [4], 0 of 4 (4×) and 1 of 4. The survivor count (dose: 400.0 mg/kg/injection, schedule: Q04DX003 (ip), vehicle: saline) was 0 of 6.
With `COc1ccc(Nc2cc(N)nc(N)n2)cc1`, the survivor count is, setting by setting: (dose: 100.0 mg/kg/injection, schedule: Q01DX Z (ip), vehicle: methylcellulose (MC)) 2 of 6; (dose: 200.0 mg/kg/injection, schedule: Q01DX Z (ip), vehicle: methylcellulose (MC)) 0 of 6.
As for `CCCCCCCc1nc(/N=N/N(C)C)c(C(N)=O)[nH]1`, where the note is “dose: 100.0 mg/kg/injection, schedule: Q01DX009 (ip), vehicle: saline with Tween-80”, the T/C was 130 % of control. Moreover, under setting [1], the survivor count was 0 of 6.
`CC1(C)CC(C)(c2ccc(O)cc2)Oc2ccccc21` (stereo unspecified): where the note is “dose: 400.0 mg/kg/injection, schedule: Q04DX003 (ip), vehicle: saline with Tween-80”, the survivor count is recorded as 2 of 3.
For `CCOC(=O)Nc1cc(NC(C)CCCN(CC)CC)c2nc(-c3ccccc3)c(-c3ccccc3)nc2n1` (stereo unspecified), the survivor count reads like this: under setting [3], 3 of 6; under setting [4], 0 of 6.
Consider `OCC1OC(n2cc(Br)c3c(NO)ncnc32)C(O)C1O` (stereo unspecified), for which the survivor count is 0 of 4 (dose: 20.0 mg/kg/injection, schedule: Q01DX001 (ip), vehicle: saline); 0 of 4 (dose: 40.0 mg/kg/injection, schedule: Q01DX001 (ip), vehicle: saline); 0 of 4 under setting [5].
Take `O=C(CI)NCc1ccccc1`: the survivor count runs as follows: (dose: 150.0 mg/kg/injection, schedule: Q01DX001 (ip), vehicle: saline) 2 of 6; (dose: 300.0 mg/kg/injection, schedule: Q01DX001 (ip), vehicle: saline) 0 of 6.
With `O=C1N(Br)C(=O)C(c2ccc(Cl)cc2)(c2ccc(Cl)cc2)N1Br`, the survivor count (dose: 480.0 mg/kg/injection, schedule: Q01DX015 (ip), vehicle: carboxymethylcellulose (CMC)) is recorded as 4 of 6.
Consider `O=C1C2C3c4ccccc4C(C2C(=O)N1c1ccc(Cl)cc1)[n+]1ccccc13` (stereo unspecified), for which, for the setting “dose: 300.0 mg/kg/injection, schedule: Q01DX001 (ip), vehicle: other”, the survivor count is given as 0 of 6.
Turning to `CN(C)C(=O)OCC[N+](C)(C)CCCCCC[N+](C)(C)CCOC(=O)N(C)C`, the survivor count is 2 of 6 (dose: 150.0 mg/kg/injection, schedule: Q04DX003 (ip), vehicle: saline) and 0 of 6 (dose: 300.0 mg/kg/injection, schedule: Q04DX003 (ip), vehicle: saline).
As for `COc1cc(N)ccc1NC(=O)c1ccccc1`, the survivor count (dose: 50.0 mg/kg/injection, schedule: Q01DX001 (ip), vehicle: carboxymethylcellulose (CMC)) is 0 of 4; the survivor count (dose: 100.0 mg/kg/injection, schedule: Q01DX001 (ip), vehicle: carboxymethylcellulose (CMC)) was 0 of 6; the survivor count under setting [6] is on record as 0 of 6; the survivor count under setting [7] was 0 of 6.
With `CCCN(CCC)CC(C)(C)CO`, the survivor count (dose: 200.0 mg/kg/injection, schedule: Q01DX009 (ip), vehicle: saline with Tween-80) was 0 of 3.
As for `Cc1ccc(S(=O)(=O)OCC2CCC(COS(=O)(=O)c3ccc(C)cc3)O2)cc1` (stereo unspecified), the survivor count under setting [2] is reported as 3 of 3.
Take `Nc1cc(Nc2cccc(Cl)c2)nc(N)n1`: the survivor count by setting is: under setting [6], 0 of 6; under setting [7], 0 of 6.
As to `N#CCc1ccc(Cl)cc1Cl`, the survivor count runs as follows: (dose: 100.0 mg/kg/injection, schedule: Q04DX002 (ip), vehicle: Klucel (hydroxypropylcellulose) (HPC)) 0 of 3; (dose: 200.0 mg/kg/injection, schedule: Q04DX002 (ip), vehicle: Klucel (hydroxypropylcellulose) (HPC)) 1 of 3; under setting [8], 0 of 3.
Turning to `OC(C1COC(CBr)O1)C(O)C1COC(CBr)O1` (stereo unspecified), under setting [8], the survivor count was 1 of 3.
